Consider two molecules from PMC11255254, “ER-associated VAP27-1 and VAP27-3 proteins functionally link the lipid-binding ORP2A at the ER-chloroplast contact sites” (Nature Communications, 2024).

Chains of the proteins cited; added tags and fusions are not shown. Lines headed by an entry give the natural chain unless they say otherwise; changes in a name come on top.
UniProt Q8VZ95: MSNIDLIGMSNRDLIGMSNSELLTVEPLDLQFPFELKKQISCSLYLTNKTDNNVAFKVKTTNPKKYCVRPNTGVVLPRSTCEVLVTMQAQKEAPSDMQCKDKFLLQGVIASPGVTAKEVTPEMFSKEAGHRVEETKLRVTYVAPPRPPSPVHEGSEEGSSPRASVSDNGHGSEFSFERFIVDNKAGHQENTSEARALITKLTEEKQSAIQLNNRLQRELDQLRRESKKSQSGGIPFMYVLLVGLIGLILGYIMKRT

These are yes or no findings as the source states them, for the method shown. A result given as binding can be weak or reduced; the word gives no strength. For some of these results: In cells and extracts the contact can be indirect. For some of these results: Tags and fused reporters may be left off the sequences shown.

Test [1] deals with VAP27-1ΔTMD (cytosolic domain of VAP27-1), yeast two-hybrid bait (Arabidopsis thaliana) (UniProt Q8VZ95). Nature of the test: two-hybrid; direct yeast two-hybrid; VAP27ΔTMD as baits, full-length ORP2A as prey.
The target in test [2] is VAP27-3ΔTMD (cytosolic domain of VAP27-3), yeast two-hybrid bait (Arabidopsis thaliana). The test is described as above.
Test [3] deals with GST-VAP27-1ΔTMD (Arabidopsis thaliana) (UniProt Q8VZ95). The experiment in a line: pull-down; His-ORP2A extracted from E. coli in lysis buffer (50 mM NaH2PO4, 300 mM NaCl, pH 8.0) incubated with recombinant GST-VAP27 (ΔTMD) fixed on glutathione agarose; eluates blotted with anti-His serum.
Test [4] addresses GST-VAP27-3ΔTMD (Arabidopsis thaliana). The description is as above.

B1: full-length ORP2A, yeast two-hybrid prey (protein, UniProt Q940Y1 1-721)
chain: MRVKELHPLCCITLESPHGINSQSPEEPVTTALTRSRSLPAKSLTGGSESETVAGILYKWTNFGKGWRSRWFLLRNGILSYSKIRRPENLNLLSPDDDVRLIGDISGERLSRMDSCSGRRKQQKTVGIVHLKVSSFRESKSDDRKFYIFTATKTLHLRTDSITDRAAWLQALASTKCIFPLRSLNGDFSFIPPKDLSISTERLKKRLHEEGMNENLVKECEQIMLSEFSEMHGQVKLLHEERTNLLDALRQLEAANLEVGASGKHEFSSLGRGKYSECSTTASSDGKQEFEDVSEEDEPSFHDTKEFFNEPNIGSESNLAISGHTDIKRRTKLPDPAEKEKGVSLWSMIKDNVGKDLTRVCLPVYFNEPISSLQKCFEDLEYSYLLDRAYEHGKSGNGLLRALNVAAFAVSGYASTEGRHCKPFNPLLGETYEADFPEKGIRFFSEKVSHHPTVIACHCEGKGWKFWGDTNLRSKFWGRSIQVEPVGVLTLEFDDGEVFQWSKVTSTIYNIILGKLYCDHHGVMQIRGNRQYSCTLKFKEQSILERNPHQVNGFVEDVAGQKAATIFGKWDDSLYYVAGDGINKSKVSDPASNASLLWKRTKPPPNVTRYNLTSFAITLNELTPGLQEILPPTDSRLRPDQRHLENGEYEKANLEKQRLERRQRMSRQLQESGWRPRWFERQGESDTFKYTGGYWEARGHRNWDDCPDIFGEFTEELADAA
Take B1: the binding result in test [1] and in test [2] was “binds” in each case.

B2: His-ORP2A (full-length ORP2A fused to His) (protein, UniProt Q940Y1 1-721)
chain: B1 chain
For B2, the binding result in test [3] and in test [4] was “binds” throughout.
